# Test results taken from PubChem BioAssay AID212 (DTP/NCI, 2004).
# The list does not hold the whole screen: it is rich in T/C values a quarter to a half above the control, in often repeated tests (any T/C) and in doses without a T/C. Other doses and runs of a compound stand elsewhere. T/C: endpoint of the treated group in % of that of the vehicle group. Schedules are NCI's codes, read here as Q, the interval in days (D) or hours (H), X, the number of doses. Some T/C values are followed by the survivors on the day toxicity was checked, most often the fifth; without a count, all were alive then. Some entries give survivors of the animals treated and no T/C: the source holds a T/C of zero for them, seemingly a mark for toxic or unscored doses. Counts of survivors are from the toxicity check (mostly the fifth day) where no day follows; animals may have died later.
# System: BDF1 mice, colon carcinoma 38 sc, T/C %
# Assay: NCI In Vivo Anticancer Drug Screen. Data for tumor model Colon Carcinoma 38 (subcutaneous) in B6D2F1 (BDF1) mice
# Details: T/C endpoint: median tumor weight (est.), higher T/C = larger tumour; for T/C: evaluated on day 20
# Summary of the method: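 Mice with transplanted tumors are treated with compound or vehicle. Survival or tumor size is then measured in both groups. The ratio of treated to control gives the reported figure.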
compound,measurement,setting,value
CCN(CC)CCOC(=O)Cc1cccc2c(=O)cc(-c3ccc(Cl)cc3)oc12,survivor count,"dose: 200.0 mg/kg/injection, schedule: Q07DX002 (ip), vehicle: saline",1 of 10 on day 20
same,survivor count,"dose: 400.0 mg/kg/injection, schedule: Q07DX002 (ip), vehicle: saline with Tween-80",0 of 10 on day 20
C/C(=N\N=C(/[Se])N1CC2CCC(CC2)C1)c1ccccn1,T/C,"dose: 1.5 mg/kg/injection, schedule: Q07DX002 (ip), vehicle: Klucel (hydroxypropylcellulose) (HPC)",141 % of control
CN(C1=NS(=O)(=O)N=C(N(C)c2ccccc2)O1)c1ccccc1,T/C,"dose: 50.0 mg/kg/injection, schedule: Q07DX003 (ip), vehicle: Klucel (hydroxypropylcellulose) (HPC)",131 % of control
C/C(=N/NC(N)=S)c1ccc2ccccc2c1,survivor count,"dose: 200.0 mg/kg/injection, schedule: Q07DX002 (ip), vehicle: saline with Tween-80",2 of 10 on day 20
O=C(O)CSc1c(Cl)c(=O)oc2ccc(Cl)cc12,survivor count,"dose: 400.0 mg/kg/injection, schedule: Q07DX002 (ip), vehicle: Klucel (hydroxypropylcellulose) (HPC)",0 of 10 on day 20
O=C(O)Cc1cccc2c(=O)cc(-c3ccccc3)oc12,survivor count,"dose: 112.0 mg/kg/injection, schedule: Q03HX004 (ip), vehicle: clinical formulation",4 of 10 on day 20
same,survivor count,"dose: 150.0 mg/kg/injection, schedule: Q03HX004 (ip), vehicle: clinical formulation",0 of 10 on day 20
same,survivor count,"dose: 200.0 mg/kg/injection, schedule: Q03HX004 (ip), vehicle: clinical formulation",0 of 10 on day 20
same,survivor count,"dose: 200.0 mg/kg/injection, schedule: Q06HX002 (ip), vehicle: clinical formulation",1 of 10 on day 20
same,survivor count,"dose: 200.0 mg/kg/injection, schedule: Q07DX002 (ip), vehicle: Klucel (hydroxypropylcellulose) (HPC)",0 of 10 on day 20
same,survivor count,"dose: 267.0 mg/kg/injection, schedule: Q01DX001 (ip), vehicle: clinical formulation",1 of 10 on day 20
same,survivor count,"dose: 267.0 mg/kg/injection, schedule: Q06HX002 (ip), vehicle: clinical formulation",1 of 10 on day 20
same,survivor count,"dose: 267.0 mg/kg/injection, schedule: Q07DX002 (ip), vehicle: clinical formulation",4 of 10 on day 20
same,survivor count,"dose: 356.0 mg/kg/injection, schedule: Q01DX001 (ip), vehicle: clinical formulation",0 of 9 on day 20
same,survivor count,"dose: 356.0 mg/kg/injection, schedule: Q07DX002 (ip), vehicle: clinical formulation",0 of 10 on day 20
same,survivor count,"dose: 356.0 mg/kg/injection, schedule: Q07DX002 (iv), vehicle: sodium bicarbonate",2 of 10 on day 20
same,survivor count,"dose: 400.0 mg/kg/injection, schedule: Q07DX002 (ip), vehicle: sodium bicarbonate",1 of 10 on day 20
O=c1[nH]cccc1O,T/C,"dose: 125.0 mg/kg/injection, schedule: Q07DX002 (ip), vehicle: saline with Tween-80",141 % of control
same,T/C,"dose: 250.0 mg/kg/injection, schedule: Q07DX002 (ip), vehicle: saline with Tween-80",147 % of control
same,survivor count,"dose: 1024.0 mg/kg/injection, schedule: Q07DX002 (ip), vehicle: saline with Tween-80",1 of 10 on day 20
Oc1c(Cl)cc(C(c2cc(Cl)c(O)c(Cl)c2)C(c2cc(Cl)c(O)c(Cl)c2)c2cc(Cl)c(O)c(Cl)c2)cc1Cl,T/C,"dose: 25.0 mg/kg/injection, schedule: Q07DX002 (ip), vehicle: Klucel (hydroxypropylcellulose) (HPC)",128 % of control
same,T/C,"dose: 50.0 mg/kg/injection, schedule: Q07DX002 (ip), vehicle: Klucel (hydroxypropylcellulose) (HPC)",127 % of control [9 of 10 alive on day 20]
CCC1CN2C(=N1)c1ccccc1-c1cc(Cl)ccc12 (stereo unspecified),T/C,"dose: 25.0 mg/kg/injection, schedule: Q07DX003 (ip), vehicle: suspension in saline",135 % of control
same,T/C,"dose: 50.0 mg/kg/injection, schedule: Q07DX003 (ip), vehicle: suspension in saline",139 % of control [8 of 10 alive on day 20]
same,survivor count,"dose: 100.0 mg/kg/injection, schedule: Q07DX003 (ip), vehicle: suspension in saline",4 of 10 on day 20
